Data as given in article PMC10653931.
Results are given in words; binding and its absence hold for the method and conditions named. Binding seen in cells or lysates may run through a third protein. Some binding calls cover weakened binding; strength is not graded here.

Amino acid sequences for entries named in this document (tags omitted).
UniProt Q13131: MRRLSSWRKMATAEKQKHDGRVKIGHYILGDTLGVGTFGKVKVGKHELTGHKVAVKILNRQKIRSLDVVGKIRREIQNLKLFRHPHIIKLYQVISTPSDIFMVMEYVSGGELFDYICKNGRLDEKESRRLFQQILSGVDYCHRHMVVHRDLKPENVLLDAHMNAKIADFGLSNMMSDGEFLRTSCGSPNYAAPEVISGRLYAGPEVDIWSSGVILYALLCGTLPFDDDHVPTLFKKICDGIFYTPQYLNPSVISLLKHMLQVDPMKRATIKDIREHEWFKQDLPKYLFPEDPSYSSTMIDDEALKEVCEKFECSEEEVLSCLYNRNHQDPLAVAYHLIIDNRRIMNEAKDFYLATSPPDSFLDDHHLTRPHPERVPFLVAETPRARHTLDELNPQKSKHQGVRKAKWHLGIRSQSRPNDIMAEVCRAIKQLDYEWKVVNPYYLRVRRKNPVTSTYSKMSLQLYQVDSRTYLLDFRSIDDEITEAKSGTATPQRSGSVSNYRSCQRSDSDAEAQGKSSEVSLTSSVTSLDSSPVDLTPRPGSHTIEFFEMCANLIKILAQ
UniProt Q8NHU6: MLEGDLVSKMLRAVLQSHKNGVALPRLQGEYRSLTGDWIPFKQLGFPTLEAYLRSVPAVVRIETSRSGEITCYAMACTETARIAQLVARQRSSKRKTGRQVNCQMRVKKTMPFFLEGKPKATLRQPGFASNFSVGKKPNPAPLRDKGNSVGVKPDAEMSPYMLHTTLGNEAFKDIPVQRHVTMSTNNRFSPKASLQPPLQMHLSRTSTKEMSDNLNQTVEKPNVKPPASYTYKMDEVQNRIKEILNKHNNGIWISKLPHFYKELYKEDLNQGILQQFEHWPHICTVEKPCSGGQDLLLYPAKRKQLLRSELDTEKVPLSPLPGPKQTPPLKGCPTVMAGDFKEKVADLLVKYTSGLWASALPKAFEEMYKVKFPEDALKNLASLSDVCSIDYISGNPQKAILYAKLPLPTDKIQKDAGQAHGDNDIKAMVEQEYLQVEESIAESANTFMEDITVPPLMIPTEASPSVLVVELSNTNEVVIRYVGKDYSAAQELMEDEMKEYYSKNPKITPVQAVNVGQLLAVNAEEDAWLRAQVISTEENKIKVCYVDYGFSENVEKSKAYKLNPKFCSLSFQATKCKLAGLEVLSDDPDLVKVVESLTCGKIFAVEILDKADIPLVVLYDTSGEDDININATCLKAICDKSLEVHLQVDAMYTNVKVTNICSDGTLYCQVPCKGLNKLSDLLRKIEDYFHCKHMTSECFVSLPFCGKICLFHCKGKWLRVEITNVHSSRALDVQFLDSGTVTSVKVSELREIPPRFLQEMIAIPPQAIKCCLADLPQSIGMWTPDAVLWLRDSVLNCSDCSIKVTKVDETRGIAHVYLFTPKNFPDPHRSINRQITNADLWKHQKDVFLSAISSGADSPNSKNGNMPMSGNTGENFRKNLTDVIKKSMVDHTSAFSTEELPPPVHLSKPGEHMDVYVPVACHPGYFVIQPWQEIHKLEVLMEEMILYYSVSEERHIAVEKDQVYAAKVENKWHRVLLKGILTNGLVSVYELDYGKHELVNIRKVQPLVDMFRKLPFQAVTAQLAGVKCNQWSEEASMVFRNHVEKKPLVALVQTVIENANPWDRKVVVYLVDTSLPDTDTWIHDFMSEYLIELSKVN

Target: His-AMPK (UniProt Q13131)
Experiment: pull-down; HEK293T co-transfected with V5-TDRD7 constructs and His-AMPK; AMPK pulled down by Ni-NTA-agarose from lysates overnight at 4°C; immunoblot for TDRD7

V5-TDRD7 (human Tudor domain containing 7, wild type) (from UniProt Q8NHU6 1-1098)
binding: binds
